Laboratory results: publication PMC11642393

The chains behind the UniProt entries cited, without tags or fusion partners. Where a name states a change or a piece, a line headed by the entry shows the natural chain unless it says otherwise.
UniProt P62491: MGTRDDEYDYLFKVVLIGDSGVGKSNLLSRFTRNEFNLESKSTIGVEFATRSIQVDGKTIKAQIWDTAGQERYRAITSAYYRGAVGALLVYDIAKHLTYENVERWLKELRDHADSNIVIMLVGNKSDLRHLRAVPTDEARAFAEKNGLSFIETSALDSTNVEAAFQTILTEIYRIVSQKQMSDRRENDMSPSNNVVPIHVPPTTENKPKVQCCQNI
UniProt O75154: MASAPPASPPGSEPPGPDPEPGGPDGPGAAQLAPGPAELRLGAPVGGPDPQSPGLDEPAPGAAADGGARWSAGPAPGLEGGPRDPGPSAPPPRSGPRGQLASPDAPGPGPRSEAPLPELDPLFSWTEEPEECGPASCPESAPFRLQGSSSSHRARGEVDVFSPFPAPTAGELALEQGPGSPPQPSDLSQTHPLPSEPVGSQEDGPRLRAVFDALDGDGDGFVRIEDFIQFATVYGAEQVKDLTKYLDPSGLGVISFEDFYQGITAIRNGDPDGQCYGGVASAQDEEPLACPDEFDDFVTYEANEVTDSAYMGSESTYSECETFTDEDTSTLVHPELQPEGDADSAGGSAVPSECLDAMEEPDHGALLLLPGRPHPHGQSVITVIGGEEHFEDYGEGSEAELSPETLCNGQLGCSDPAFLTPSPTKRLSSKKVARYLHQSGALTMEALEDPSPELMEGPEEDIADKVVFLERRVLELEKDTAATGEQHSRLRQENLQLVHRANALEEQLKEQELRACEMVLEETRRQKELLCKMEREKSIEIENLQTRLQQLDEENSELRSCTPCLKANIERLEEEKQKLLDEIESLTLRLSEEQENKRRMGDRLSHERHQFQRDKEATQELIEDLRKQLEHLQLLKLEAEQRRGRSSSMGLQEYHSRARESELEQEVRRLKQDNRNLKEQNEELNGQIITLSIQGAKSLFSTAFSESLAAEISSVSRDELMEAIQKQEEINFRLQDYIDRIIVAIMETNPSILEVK

Columns and labels:
[1] = target: RAB11A (as part of the FRET biosensor) (UniProt P62491); test: FRET or BRET; biosensor probe (RAB11A, mECFP, mcpVenus and C-terminal RAB11FIP3 fused) transfected into Cos-7 cells; vehicle or Rab11-inhibitor-D6 at 20 µM for 16 h; fixed in 4% PFA; FRET ratio by confocal microscopy
[2] = target: RAB11A (as part of the FRET biosensor) (UniProt P62491); test: FRET or BRET; anisotropy-based FRET of the same biosensor in clarified lysates of transfected HEK293T cells (10 mM Tris-HCl pH 7.4, 10 mM MgCl2, 100 mM NaCl, 1% Triton X-100); Rab11 inhibitor added for 5 h; excitation 430 nm, emission 535 nm

binding [1]: binds
binding [2]: binds
Substance: C-terminal portion of RAB11FIP3 (as part of the FRET biosensor) (from UniProt O75154) (domain or fragment)

No constants are given. Whether binding was seen depends on the method and setting. In cells and extracts the contact can be indirect. Binding can be weak; no strength is given.
